From paper PMC8856622
No constants are given. Whether binding was seen depends on the method and setting. In cells and extracts the contact can be indirect. Some entries that bind do so weakly or less than the wild type. Values belong to the substance of their own block, whether it stands above or below them.

Protein sequences, listed by entry. Tags and fused reporters are not part of them.
UniProt P06537: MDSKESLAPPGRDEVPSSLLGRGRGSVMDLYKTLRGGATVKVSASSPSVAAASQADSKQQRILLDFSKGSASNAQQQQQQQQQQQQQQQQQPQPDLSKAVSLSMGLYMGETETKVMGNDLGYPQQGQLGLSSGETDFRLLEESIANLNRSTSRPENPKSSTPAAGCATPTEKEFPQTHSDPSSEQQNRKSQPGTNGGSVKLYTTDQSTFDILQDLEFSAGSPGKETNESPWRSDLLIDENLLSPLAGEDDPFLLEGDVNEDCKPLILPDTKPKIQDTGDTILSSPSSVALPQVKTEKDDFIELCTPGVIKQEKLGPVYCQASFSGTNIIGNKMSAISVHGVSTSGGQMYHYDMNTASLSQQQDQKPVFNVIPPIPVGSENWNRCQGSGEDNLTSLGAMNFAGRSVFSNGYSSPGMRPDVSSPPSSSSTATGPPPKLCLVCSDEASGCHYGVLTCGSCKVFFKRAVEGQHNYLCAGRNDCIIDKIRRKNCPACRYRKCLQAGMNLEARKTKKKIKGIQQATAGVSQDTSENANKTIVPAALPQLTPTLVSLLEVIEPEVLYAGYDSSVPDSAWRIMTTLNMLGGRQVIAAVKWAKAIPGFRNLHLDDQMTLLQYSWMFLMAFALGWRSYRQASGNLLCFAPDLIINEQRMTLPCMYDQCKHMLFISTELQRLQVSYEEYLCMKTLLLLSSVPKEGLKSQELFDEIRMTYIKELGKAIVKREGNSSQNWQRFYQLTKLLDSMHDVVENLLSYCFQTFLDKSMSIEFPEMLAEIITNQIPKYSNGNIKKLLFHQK
UniProt Q9WTL8: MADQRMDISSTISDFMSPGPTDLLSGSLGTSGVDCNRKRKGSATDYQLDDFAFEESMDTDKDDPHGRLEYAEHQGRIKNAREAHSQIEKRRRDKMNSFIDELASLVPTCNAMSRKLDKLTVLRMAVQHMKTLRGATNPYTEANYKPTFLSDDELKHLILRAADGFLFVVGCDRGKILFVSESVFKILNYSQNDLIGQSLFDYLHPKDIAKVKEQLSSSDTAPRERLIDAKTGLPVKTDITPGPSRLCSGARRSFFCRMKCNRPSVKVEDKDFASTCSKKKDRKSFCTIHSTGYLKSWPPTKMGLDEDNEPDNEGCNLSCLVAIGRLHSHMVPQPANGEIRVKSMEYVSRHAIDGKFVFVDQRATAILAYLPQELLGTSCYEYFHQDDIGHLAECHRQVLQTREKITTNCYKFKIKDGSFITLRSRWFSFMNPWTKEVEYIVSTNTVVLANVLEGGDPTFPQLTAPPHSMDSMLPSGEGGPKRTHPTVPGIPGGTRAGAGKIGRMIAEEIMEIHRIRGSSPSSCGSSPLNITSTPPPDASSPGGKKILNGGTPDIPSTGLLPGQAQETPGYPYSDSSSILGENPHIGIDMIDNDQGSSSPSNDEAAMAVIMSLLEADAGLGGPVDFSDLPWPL
UniProt Q9EPW2: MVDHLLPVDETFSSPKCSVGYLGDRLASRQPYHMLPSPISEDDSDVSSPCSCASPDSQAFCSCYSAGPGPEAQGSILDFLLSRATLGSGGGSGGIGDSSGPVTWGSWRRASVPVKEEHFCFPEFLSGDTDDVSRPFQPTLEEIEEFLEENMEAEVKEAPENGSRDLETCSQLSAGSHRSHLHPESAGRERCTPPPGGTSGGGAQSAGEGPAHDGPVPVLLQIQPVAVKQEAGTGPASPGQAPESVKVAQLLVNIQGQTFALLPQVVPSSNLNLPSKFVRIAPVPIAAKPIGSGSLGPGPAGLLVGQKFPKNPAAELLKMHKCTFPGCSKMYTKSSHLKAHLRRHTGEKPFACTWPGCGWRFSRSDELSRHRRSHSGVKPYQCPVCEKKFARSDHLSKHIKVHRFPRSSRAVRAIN

Key:
[1] = biological target: glucocorticoid receptor (GR), endogenous (mouse (endogenous in muscle tissue)) (UniProt P06537); assay: co-IP; IP of endogenous GR from mouse muscle tissue lysate at 4 hours (ZT4) after in vivo prednisone or vehicle pulse at ZT0, with or without overexpression of FLAG-tagged REV-ERBα; immunoblot for BMAL1
[2] = biological target: GFP-tagged glucocorticoid receptor (GR-GFP) (UniProt P06537); assay: co-IP; cross-tag IP from whole lysates of electroporated mouse muscle co-overexpressing GR-GFP and BMAL1-FLAG, lysed 4 hours after a light-phase (ZT0) intraperitoneal prednisone pulse; ~100 ug lysate rotated overnight at 4°C with pull-down antibody (GFP- or FLAG-based), Dynabeads, four washes, immunoblot
[3] = biological target: FLAG (DDK)-tagged BMAL1 (BMAL1-FLAG) (UniProt Q9WTL8); assay: as above
[4] = biological target: GFP-tagged glucocorticoid receptor (GR-GFP) (UniProt P06537); assay: co-IP; cross-tag IP with KLF15 and GR (fig. S4D), done to validate the approach; conditions not given

binding [1]: binds
Substance: BMAL1 (Brain and muscle Arnt-like protein-1), endogenous (from UniProt Q9WTL8 1-632)

binding [2]: binds
Substance: FLAG (DDK)-tagged BMAL1 (BMAL1-FLAG) (from UniProt Q9WTL8 1-632)

binding [3]: binds
Substance: GFP-tagged glucocorticoid receptor (GR-GFP) (from UniProt P06537 1-792)

binding [4]: binds
Substance: Krüppel-like factor 15 (KLF15), tagged construct (from UniProt Q9EPW2 1-415)
